No constants are given. Whether binding was seen depends on the method and setting. Binding seen in cells or lysates may run through a third protein. Some binding calls cover weakened binding; strength is not graded here. Sequences can lack the tags named with a protein.
Columns and labels:
[1] = target: myc-SUMO-1 (SUMO-1 tagged with c-myc) (human) (UniProt P63165); assay: co-immunoprecipitation with anti-c-myc antibody, Western blot
[2] = target: myc-SUMO-1 (SUMO-1 tagged with c-myc) (human) (UniProt P63165); assay: co-immunoprecipitation from transfected cells (FIGS. 22A-C)

Protein sequences, listed by entry. Tags and fused reporters are not part of them. Lines headed by an entry give the natural chain unless they say otherwise; changes in a name come on top.
UniProt P63165: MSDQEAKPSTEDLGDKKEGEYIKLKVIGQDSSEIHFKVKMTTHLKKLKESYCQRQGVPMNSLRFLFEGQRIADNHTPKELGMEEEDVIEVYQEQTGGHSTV

B1: 3xFlag-PHB1 (wild type Prohibitin-1 with a triple Flag tag at the N-terminus) (protein, not shown: small tags and cut ends)
chain: AAKVFESIGKFGLALAVAGGVVNSALYNVDAGHRAVIFDRFRGVQDIVVGEGTHFLIPWVQKPIIFDCRSRPRNVPVITGSKDLQNVNITLRILFRPVASQLPRIFTSIGEDYDERVLPSITTEILKSVVARFDAGELITQRELVSRQVSDDLTERAATFGLILDDVSLTHLTFGKEFTEAVEAKQVAQQEAERARFVVEKAEQQKKAAIISAEGDSKAAELIANSLATAGDGLIELRKLEAAEDIAYQLSRSRNITYLPAGQSVLLQLPQ
B1 was tested, and the binding [1] was “binds” and the binding [2] was “binds”.

From US20160223570A1
